Assay results published in the supplement of paper PMC6411743.
± gives the standard deviation of the averaged measurements. Some of the results follow.

Chains of the proteins cited; added tags and fusions are not shown. Lines headed by an entry give the natural chain unless they say otherwise; changes in a name come on top.
UniProt P49821, whole entry: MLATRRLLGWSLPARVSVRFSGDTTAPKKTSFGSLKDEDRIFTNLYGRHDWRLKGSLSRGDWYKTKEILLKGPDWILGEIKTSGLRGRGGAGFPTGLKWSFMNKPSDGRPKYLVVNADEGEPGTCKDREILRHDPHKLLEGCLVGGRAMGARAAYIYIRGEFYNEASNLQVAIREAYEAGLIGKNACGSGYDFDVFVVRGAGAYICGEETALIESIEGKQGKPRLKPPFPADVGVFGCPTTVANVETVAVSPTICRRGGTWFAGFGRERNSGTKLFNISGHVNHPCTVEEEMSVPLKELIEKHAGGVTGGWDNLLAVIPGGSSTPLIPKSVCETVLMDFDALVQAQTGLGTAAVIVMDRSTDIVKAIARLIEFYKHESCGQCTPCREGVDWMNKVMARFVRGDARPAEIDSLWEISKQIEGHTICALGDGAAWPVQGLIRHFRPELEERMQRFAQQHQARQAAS
UniProt P11802: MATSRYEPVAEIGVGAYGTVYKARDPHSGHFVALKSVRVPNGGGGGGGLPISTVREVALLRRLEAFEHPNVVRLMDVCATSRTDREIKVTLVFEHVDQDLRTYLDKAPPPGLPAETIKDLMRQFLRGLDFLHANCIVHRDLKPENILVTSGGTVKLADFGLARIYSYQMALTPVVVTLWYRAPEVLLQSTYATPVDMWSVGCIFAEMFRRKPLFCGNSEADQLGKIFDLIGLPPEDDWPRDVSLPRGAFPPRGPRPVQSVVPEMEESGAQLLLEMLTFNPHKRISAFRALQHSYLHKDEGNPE
UniProt Q13206, whole entry: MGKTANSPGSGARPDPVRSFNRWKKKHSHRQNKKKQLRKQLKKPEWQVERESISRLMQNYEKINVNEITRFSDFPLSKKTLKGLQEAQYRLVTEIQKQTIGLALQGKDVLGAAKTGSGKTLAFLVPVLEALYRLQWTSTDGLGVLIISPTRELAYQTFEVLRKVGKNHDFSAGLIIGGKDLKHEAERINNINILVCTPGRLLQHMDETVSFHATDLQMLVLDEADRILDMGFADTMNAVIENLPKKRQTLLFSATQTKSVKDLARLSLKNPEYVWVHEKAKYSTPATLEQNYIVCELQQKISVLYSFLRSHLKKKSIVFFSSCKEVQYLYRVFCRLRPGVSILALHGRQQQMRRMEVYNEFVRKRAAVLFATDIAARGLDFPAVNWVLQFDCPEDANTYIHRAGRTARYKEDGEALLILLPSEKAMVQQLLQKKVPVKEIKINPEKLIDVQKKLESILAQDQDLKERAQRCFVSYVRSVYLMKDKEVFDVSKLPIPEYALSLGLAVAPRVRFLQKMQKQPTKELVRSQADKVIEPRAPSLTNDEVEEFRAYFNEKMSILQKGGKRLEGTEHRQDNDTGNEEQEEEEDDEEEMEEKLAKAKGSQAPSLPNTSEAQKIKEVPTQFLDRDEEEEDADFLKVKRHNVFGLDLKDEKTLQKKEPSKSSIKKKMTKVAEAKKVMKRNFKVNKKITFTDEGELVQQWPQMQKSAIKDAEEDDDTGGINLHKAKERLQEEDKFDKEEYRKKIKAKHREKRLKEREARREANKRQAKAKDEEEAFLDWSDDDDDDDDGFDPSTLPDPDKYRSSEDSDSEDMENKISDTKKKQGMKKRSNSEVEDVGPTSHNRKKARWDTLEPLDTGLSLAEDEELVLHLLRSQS
UniProt Q8WVB6, whole entry: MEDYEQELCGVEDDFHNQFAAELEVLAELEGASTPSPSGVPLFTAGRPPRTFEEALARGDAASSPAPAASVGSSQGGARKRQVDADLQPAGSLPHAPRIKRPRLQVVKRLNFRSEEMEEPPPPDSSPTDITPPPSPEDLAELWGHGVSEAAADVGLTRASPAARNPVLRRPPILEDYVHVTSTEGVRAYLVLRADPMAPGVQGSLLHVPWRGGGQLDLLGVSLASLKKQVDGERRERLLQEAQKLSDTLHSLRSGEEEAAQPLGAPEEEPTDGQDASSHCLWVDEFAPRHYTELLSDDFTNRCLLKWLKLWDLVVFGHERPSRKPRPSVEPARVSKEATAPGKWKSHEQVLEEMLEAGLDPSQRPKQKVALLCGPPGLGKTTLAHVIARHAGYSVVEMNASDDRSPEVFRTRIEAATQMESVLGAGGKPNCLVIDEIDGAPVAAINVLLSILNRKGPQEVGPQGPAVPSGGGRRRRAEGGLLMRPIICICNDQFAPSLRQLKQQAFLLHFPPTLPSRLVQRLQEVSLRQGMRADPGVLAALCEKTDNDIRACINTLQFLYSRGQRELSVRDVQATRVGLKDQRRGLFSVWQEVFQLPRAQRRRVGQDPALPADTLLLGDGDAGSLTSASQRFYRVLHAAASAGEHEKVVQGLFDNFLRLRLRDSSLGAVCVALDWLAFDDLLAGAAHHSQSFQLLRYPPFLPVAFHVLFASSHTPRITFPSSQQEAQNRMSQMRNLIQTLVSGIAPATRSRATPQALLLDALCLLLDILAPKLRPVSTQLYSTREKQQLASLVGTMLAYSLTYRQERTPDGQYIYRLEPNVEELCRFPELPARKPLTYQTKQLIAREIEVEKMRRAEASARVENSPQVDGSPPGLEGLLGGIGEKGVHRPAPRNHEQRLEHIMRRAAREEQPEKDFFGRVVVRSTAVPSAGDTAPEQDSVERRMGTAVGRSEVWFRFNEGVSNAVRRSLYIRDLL
UniProt Q02338: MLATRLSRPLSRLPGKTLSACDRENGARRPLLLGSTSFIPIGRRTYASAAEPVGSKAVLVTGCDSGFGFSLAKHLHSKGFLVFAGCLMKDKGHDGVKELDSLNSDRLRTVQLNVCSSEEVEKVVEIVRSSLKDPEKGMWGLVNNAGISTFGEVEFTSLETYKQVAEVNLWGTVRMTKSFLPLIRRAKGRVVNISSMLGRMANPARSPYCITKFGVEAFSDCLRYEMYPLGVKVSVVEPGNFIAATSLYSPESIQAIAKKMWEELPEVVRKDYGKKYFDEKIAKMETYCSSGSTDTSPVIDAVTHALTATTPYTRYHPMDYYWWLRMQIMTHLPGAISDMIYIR
UniProt Q8IWZ3: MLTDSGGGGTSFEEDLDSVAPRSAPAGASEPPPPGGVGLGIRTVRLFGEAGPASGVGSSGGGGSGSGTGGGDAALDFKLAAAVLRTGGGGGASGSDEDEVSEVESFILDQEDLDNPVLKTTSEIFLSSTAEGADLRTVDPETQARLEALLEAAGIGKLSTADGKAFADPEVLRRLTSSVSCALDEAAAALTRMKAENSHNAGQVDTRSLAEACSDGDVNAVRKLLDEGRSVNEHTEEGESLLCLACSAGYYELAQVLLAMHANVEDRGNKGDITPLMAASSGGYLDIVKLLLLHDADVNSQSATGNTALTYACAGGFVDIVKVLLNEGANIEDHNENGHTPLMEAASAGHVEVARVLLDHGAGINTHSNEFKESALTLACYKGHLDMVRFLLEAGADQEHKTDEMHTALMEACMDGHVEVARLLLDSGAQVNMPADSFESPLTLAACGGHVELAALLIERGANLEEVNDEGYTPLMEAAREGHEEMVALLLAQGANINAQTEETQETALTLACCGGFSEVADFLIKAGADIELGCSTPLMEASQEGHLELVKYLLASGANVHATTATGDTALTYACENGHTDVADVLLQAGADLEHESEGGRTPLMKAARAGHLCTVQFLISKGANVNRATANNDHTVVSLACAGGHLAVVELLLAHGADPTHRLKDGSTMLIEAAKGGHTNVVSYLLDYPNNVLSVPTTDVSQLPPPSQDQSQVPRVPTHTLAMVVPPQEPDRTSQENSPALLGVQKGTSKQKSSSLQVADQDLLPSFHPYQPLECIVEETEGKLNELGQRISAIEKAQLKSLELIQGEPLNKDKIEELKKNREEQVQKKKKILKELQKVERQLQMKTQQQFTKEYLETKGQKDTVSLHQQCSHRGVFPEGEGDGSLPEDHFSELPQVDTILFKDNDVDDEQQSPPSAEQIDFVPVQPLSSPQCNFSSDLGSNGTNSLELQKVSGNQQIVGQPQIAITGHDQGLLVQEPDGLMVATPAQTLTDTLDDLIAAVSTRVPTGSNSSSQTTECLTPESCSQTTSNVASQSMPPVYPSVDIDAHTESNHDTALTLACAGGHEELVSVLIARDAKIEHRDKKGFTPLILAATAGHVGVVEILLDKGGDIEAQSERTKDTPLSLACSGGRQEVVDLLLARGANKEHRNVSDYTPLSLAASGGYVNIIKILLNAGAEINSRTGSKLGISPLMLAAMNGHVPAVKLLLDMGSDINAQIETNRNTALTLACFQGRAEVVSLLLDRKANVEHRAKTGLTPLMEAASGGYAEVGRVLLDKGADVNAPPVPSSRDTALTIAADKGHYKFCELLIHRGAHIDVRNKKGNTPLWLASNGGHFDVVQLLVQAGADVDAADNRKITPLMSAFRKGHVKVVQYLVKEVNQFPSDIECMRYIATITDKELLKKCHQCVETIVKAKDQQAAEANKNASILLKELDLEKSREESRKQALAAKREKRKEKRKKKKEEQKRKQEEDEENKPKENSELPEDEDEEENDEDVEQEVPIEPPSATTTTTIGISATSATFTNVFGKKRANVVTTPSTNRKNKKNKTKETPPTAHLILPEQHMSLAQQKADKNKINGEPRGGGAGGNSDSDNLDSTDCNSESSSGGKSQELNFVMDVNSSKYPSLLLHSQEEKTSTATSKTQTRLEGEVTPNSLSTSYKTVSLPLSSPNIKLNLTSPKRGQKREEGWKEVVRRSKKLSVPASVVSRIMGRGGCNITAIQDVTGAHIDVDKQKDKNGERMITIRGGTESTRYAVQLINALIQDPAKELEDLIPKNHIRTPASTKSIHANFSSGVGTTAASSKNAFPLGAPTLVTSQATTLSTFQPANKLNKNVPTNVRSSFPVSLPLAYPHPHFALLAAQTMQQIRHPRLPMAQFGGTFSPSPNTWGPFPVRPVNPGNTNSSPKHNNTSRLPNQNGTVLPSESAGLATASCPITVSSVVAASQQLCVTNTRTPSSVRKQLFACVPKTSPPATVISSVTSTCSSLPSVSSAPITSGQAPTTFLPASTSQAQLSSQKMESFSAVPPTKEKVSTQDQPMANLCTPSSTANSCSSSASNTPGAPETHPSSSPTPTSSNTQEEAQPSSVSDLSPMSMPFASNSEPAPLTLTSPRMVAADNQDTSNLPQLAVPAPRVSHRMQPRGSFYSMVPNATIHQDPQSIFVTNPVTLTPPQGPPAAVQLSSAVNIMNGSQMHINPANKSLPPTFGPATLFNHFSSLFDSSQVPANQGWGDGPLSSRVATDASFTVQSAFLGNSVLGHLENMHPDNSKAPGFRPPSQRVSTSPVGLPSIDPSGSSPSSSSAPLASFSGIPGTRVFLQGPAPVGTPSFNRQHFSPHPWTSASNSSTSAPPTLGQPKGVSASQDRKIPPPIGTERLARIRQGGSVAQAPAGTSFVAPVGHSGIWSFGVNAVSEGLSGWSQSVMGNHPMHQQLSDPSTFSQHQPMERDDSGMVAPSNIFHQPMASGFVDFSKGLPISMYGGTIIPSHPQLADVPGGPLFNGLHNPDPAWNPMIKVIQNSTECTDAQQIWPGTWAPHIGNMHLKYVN
UniProt O43427: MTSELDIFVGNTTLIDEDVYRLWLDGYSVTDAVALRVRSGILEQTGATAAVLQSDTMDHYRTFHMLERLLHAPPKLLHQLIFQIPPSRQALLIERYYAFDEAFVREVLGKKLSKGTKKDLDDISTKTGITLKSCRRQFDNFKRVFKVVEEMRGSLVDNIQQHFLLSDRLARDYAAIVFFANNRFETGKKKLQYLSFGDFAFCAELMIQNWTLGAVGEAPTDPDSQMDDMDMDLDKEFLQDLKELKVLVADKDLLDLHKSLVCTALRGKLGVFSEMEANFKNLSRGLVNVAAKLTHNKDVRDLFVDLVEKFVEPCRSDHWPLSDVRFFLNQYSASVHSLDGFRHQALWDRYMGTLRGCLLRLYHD
UniProt P08397: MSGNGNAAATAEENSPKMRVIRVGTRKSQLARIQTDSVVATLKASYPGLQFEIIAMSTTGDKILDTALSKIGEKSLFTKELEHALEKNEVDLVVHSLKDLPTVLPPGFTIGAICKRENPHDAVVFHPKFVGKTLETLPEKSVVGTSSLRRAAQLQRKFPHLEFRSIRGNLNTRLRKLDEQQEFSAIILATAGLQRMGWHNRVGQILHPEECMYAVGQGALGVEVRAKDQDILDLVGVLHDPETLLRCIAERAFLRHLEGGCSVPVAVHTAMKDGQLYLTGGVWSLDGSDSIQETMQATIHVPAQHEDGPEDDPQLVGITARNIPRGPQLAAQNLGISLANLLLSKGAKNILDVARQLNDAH

Compound: Nc1nc2c(ncn2[C@@H]2O[C@H](COP(=O)(O)OP(=O)(O)OP(=O)(O)O)[C@@H](O)[C@H]2O)c(=O)[nH]1 [guanosine triphosphate]
Assay: NP40-soluble protein abundance relative to vehicle (solubility fold change) (ratio); higher = more soluble protein in presence of GTP
Method in brief: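 Across three independent experiments, values are fold changes against the detergent-processed vehicle for each replicate, based on vsn-normalised intensities. The samples were Jurkat crude lysate treated with eight concentrations (0.1 to 10 mM) for 10 min at room temperature and then 3 min at 37 °C. Lysate was solubilised with 0.8% NP40 and benzonase, ultracentrifuged, and the supernatant analysed by TMT-labelled LC-MS/MS.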

What does the source list for “G3V0I5 and related entries (UniProt P49821)”?
NP40-soluble protein abundance (concentration: 0.1mM): 1.07 ± 0.12; NP40-soluble protein abundance (concentration: 0.5mM): 1.1 ± 0.15; NP40-soluble protein abundance (concentration: 1mM): 1.09 ± 0.15; NP40-soluble protein abundance (concentration: 2mM): 1.16 ± 0.19; NP40-soluble protein abundance (concentration: 4mM): 1.15 ± 0.19; NP40-soluble protein abundance (concentration: 6mM): 1.14 ± 0.2; NP40-soluble protein abundance (concentration: 8mM): 1.13 ± 0.17; NP40-soluble protein abundance (concentration: 10mM): 1.11 ± 0.18

“F8VTV8 and related entries (UniProt P11802)” was tested. Which NP40-soluble protein abundance (concentration: 0.1mM) did it give?
Its NP40-soluble protein abundance is 0.977 ± 0.13.

And the NP40-soluble protein abundance (concentration: 0.5mM)?
Its NP40-soluble protein abundance is 1.06 ± 0.048.

And the NP40-soluble protein abundance (concentration: 1mM)?
The NP40-soluble protein abundance was 0.999 ± 0.041.

And the NP40-soluble protein abundance (concentration: 2mM)?
The NP40-soluble protein abundance was 1.05 ± 0.071.

What about the NP40-soluble protein abundance (concentration: 4mM) of the same target?
The NP40-soluble protein abundance was 1.06 ± 0.056.

And the NP40-soluble protein abundance (concentration: 6mM)?
Its NP40-soluble protein abundance is 1.02 ± 0.049.

And the NP40-soluble protein abundance (concentration: 8mM)?
The NP40-soluble protein abundance was 0.995 ± 0.04.

What about the NP40-soluble protein abundance (concentration: 10mM) of the same target?
Its NP40-soluble protein abundance is 0.973 ± 0.015.

“E9PIF2 and related entries (UniProt Q13206)” was tested. Which NP40-soluble protein abundance (concentration: 0.1mM) did it give?
Its NP40-soluble protein abundance is 0.999 ± 0.029.

What about the NP40-soluble protein abundance (concentration: 0.5mM) of the same target?
Its NP40-soluble protein abundance is 0.975 ± 0.057.

And the NP40-soluble protein abundance (concentration: 1mM)?
Its NP40-soluble protein abundance is 1.06 ± 0.048.

And the NP40-soluble protein abundance (concentration: 2mM)?
The NP40-soluble protein abundance was 1.05 ± 0.066.

And the NP40-soluble protein abundance (concentration: 4mM)?
The NP40-soluble protein abundance was 0.976 ± 0.08.

And the NP40-soluble protein abundance (concentration: 6mM)?
The NP40-soluble protein abundance was 0.971 ± 0.058.

And the NP40-soluble protein abundance (concentration: 8mM)?
Its NP40-soluble protein abundance is 0.961 ± 0.087.

What about the NP40-soluble protein abundance (concentration: 10mM) of the same target?
The NP40-soluble protein abundance was 0.996 ± 0.041.

With “E7EXA6 and related entries (UniProt Q8WVB6)” as the target, how does the NP40-soluble protein abundance (concentration: 0.1mM) read?
The NP40-soluble protein abundance was 1.11 ± 0.045.

And the NP40-soluble protein abundance (concentration: 0.5mM)?
Its NP40-soluble protein abundance is 1.23 ± 0.11.

And the NP40-soluble protein abundance (concentration: 1mM)?
Its NP40-soluble protein abundance is 1.22 ± 0.12.

What about the NP40-soluble protein abundance (concentration: 2mM) of the same target?
Its NP40-soluble protein abundance is 1.31 ± 0.18.

What about the NP40-soluble protein abundance (concentration: 4mM) of the same target?
The NP40-soluble protein abundance was 1.32 ± 0.2.

What about the NP40-soluble protein abundance (concentration: 6mM) of the same target?
Its NP40-soluble protein abundance is 1.32 ± 0.19.

What about the NP40-soluble protein abundance (concentration: 8mM) of the same target?
The NP40-soluble protein abundance was 1.31 ± 0.19.

And the NP40-soluble protein abundance (concentration: 10mM)?
The NP40-soluble protein abundance was 1.29 ± 0.17.

Which results are given for “E9PCG9 and related entries (UniProt Q02338)”?
NP40-soluble protein abundance (concentration: 0.1mM): 1.07 ± 0.039; NP40-soluble protein abundance (concentration: 0.5mM): 1.1 ± 0.063; NP40-soluble protein abundance (concentration: 1mM): 1 ± 0.035; NP40-soluble protein abundance (concentration: 2mM): 1.02 ± 0.05; NP40-soluble protein abundance (concentration: 4mM): 0.978 ± 0.11; NP40-soluble protein abundance (concentration: 6mM): 1.01 ± 0.092; NP40-soluble protein abundance (concentration: 8mM): 0.965 ± 0.13; NP40-soluble protein abundance (concentration: 10mM): 0.934 ± 0.096

For “E9PDP5 and related entries (UniProt Q8IWZ3)”, which NP40-soluble protein abundance (concentration: 0.1mM) is on record?
Its NP40-soluble protein abundance is 0.994 ± 0.056.

And the NP40-soluble protein abundance (concentration: 0.5mM)?
The NP40-soluble protein abundance was 0.987 ± 0.076.

And the NP40-soluble protein abundance (concentration: 1mM)?
The NP40-soluble protein abundance was 1.01 ± 0.082.

What about the NP40-soluble protein abundance (concentration: 2mM) of the same target?
Its NP40-soluble protein abundance is 0.971 ± 0.086.

What about the NP40-soluble protein abundance (concentration: 4mM) of the same target?
The NP40-soluble protein abundance was 0.957 ± 0.066.

What about the NP40-soluble protein abundance (concentration: 6mM) of the same target?
The NP40-soluble protein abundance was 0.942 ± 0.047.

What about the NP40-soluble protein abundance (concentration: 8mM) of the same target?
The NP40-soluble protein abundance was 0.978 ± 0.045.

What about the NP40-soluble protein abundance (concentration: 10mM) of the same target?
Its NP40-soluble protein abundance is 0.965 ± 0.06.

Which NP40-soluble protein abundance (concentration: 0.1mM) does the source give for “E9PSD3 and related entries (UniProt O43427)” here?
The NP40-soluble protein abundance was 1.06 ± 0.054.

And the NP40-soluble protein abundance (concentration: 0.5mM)?
Its NP40-soluble protein abundance is 1.08 ± 0.083.

What about the NP40-soluble protein abundance (concentration: 1mM) of the same target?
The NP40-soluble protein abundance was 0.964 ± 0.082.

What about the NP40-soluble protein abundance (concentration: 2mM) of the same target?
Its NP40-soluble protein abundance is 1.01 ± 0.11.

What about the NP40-soluble protein abundance (concentration: 4mM) of the same target?
Its NP40-soluble protein abundance is 0.946 ± 0.077.

What about the NP40-soluble protein abundance (concentration: 6mM) of the same target?
The NP40-soluble protein abundance was 1 ± 0.061.

What about the NP40-soluble protein abundance (concentration: 8mM) of the same target?
The NP40-soluble protein abundance was 0.952 ± 0.058.

What about the NP40-soluble protein abundance (concentration: 10mM) of the same target?
Its NP40-soluble protein abundance is 0.934 ± 0.049.

With “F5H226 and related entries (UniProt P08397)” as the target, how does the NP40-soluble protein abundance (concentration: 0.1mM) read?
The NP40-soluble protein abundance was 0.991 ± 0.055.

What about the NP40-soluble protein abundance (concentration: 0.5mM) of the same target?
The NP40-soluble protein abundance was 1 ± 0.057.

What about the NP40-soluble protein abundance (concentration: 1mM) of the same target?
The NP40-soluble protein abundance was 0.948 ± 0.07.

And the NP40-soluble protein abundance (concentration: 2mM)?
Its NP40-soluble protein abundance is 0.927 ± 0.071.

What about the NP40-soluble protein abundance (concentration: 4mM) of the same target?
Its NP40-soluble protein abundance is 0.897 ± 0.063.

What about the NP40-soluble protein abundance (concentration: 6mM) of the same target?
Its NP40-soluble protein abundance is 0.902 ± 0.058.

What about the NP40-soluble protein abundance (concentration: 8mM) of the same target?
Its NP40-soluble protein abundance is 0.914 ± 0.078.

And the NP40-soluble protein abundance (concentration: 10mM)?
Its NP40-soluble protein abundance is 0.889 ± 0.075.
